# From PubChem BioAssay AID1347076 (National Center for Advancing Translational Sciences (NCATS), 2019)
# Hit rate of the full screen: of about 400,000 compounds, about 13,000 (3.2%) were called active. Inconclusive results, whose numbers are uncertain, are shown with a selection of clear calls. The call rests on the fitted dose curve; in most records, active means well fitted cell-killing curve with a large enough effect; inconclusive means small, poorly fitted or top-dose-only effect, or effect the other way; inactive means flat fitted curve, though single readings scatter. Potencies of inconclusive entries are doubtful fits and often do not repeat.
# Test: qHTS assay for MDR1-selective chemotherapeutics: Primary screen using the drug-selected MDR subline cells KB-V1; further: nearly all actives have a fitted effect of over 60% in size
# Details: KB-V1 MDR cells viability, CellTiter-Glo, 72 h; activity change, negative = cytotoxicity: at 46.1 µM (top of the series)
# Outline: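 KB-V1 cells (P-gp-expressing MDR subline of KB-3-1) in phenol-red-free DMEM with 10% FBS were exposed to library compounds over a concentration series for 72 h at 37 degrees C. Viability read by CellTiter-Glo luminescence; concentration-effect curves fitted after normalization.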
# On the % scale 0 is the no-effect control and ±100 the full control effect; potency means the concentration at half of the fitted maximal effect.
Structure (SMILES),"activity change, negative = cytotoxicity",Potency
C#CC[N+](C)(C)CC#Cc1ccccc1,inactive: 4.4%,
COc1cc(C)c2sc3ccccc3c(=O)c2c1NCCN(C)C,,"inconclusive: 23.1 µM [cytotoxic, partial curve, poor fit]"
CN(Cc1cccs1)C(=O)c1ccc(S(=O)(=O)N2CCCCC2)cc1,,"inconclusive: 14.6 µM [cytotoxic, partial curve]"
COc1ccc(-c2[nH]ncc2CN2CCC(OCc3ccccc3)CC2)c(F)c1,inconclusive: -6.61%,
Cc1ccc(N(C)S(=O)(=O)c2ccc3c(c2)CCC(=O)N3)cc1C,,"inconclusive: 2.06 µM [cytotoxic, partial curve, poor fit]"
Oc1ccc(Cl)cc1Cc1cc(Cl)ccc1O,,"inconclusive: 29.1 µM [cytotoxic, single point]"
CC1(C)C(=O)NCCN1C(=O)CC1C(=O)NCCN1CC(c1ccccc1)c1ccccc1 (centres undefined),,"inconclusive: 29.1 µM [rising, single point]"
O=C(Cc1cccs1)NCCCc1ccccc1,,"inconclusive: 29.1 µM [rising, single point]"
Cc1cc2[nH]c3ccccc3c2cn1,,"inconclusive: 18.4 µM [cytotoxic, single point]"
CC(C)c1nc(N2CCN(C(=O)c3ccco3)CC2)c2c3c(sc2n1)CCCC3,inactive: -8.1%,
N#Cc1cnn2c(N)c(-c3ccc(Cl)cc3)cnc12,,active: 4.11 µM
O=S(=O)(NCC1OCCc2ccccc21)c1ccc(S(=O)(=O)N2CCOCC2)cc1 (centres undefined),,active: 20.6 µM
CC1CCN(S(=O)(=O)c2ccc3c(c2)N(CC(=O)NC(C)c2ccccc2)C(=O)CS3)CC1 (centres undefined),inactive: 11.9%,
Cc1ccc(Oc2nc(CN3CCOCC3)nc3sc4c(c23)CCC(C)C4)cc1 (centres undefined),,"inconclusive: 13 µM [cytotoxic, partial curve]"
O=C(Nc1ccc(Br)cc1Cl)NC1CC1,inactive: -1.32%,
CC(C)(C)n1nnnc1C(c1ccccc1)N1CCN(c2c(Cl)cncc2Cl)CC1 (centres undefined),,"inconclusive: 9.2 µM [cytotoxic, partial curve]"
Cc1ccc(CN2CCC(c3nc4ccc(Cl)cc4[nH]3)CC2)cc1,,"inconclusive: 29.1 µM [cytotoxic, single point]"
Cc1ccccc1N/C(=N/S(=O)(=O)c1ccccc1)c1ccc(F)cc1,,"inconclusive: 16.4 µM [cytotoxic, partial curve, poor fit]"
CC(=O)Nc1ccc(C(=O)COC(=O)C2CC2)c(F)c1,,"inconclusive: 7.31 µM [rising, partial curve]"
Cc1ccc(C)c(N2CCN(S(=O)(=O)c3ccc4[nH]c5c(c4c3)CCCCC5)CC2)c1,,"inconclusive: 29.1 µM [cytotoxic, single point]"
COC(=O)[C@@]12CCCCN1[C@H](c1ccc(-c3ccc(OC)cc3)cc1)[C@H]1C(=O)N(C)C(=O)[C@H]12,,"inconclusive: 32.6 µM [cytotoxic, single point]"
CC(C)Cn1cc(NC(=O)N2CCN(c3cccc(Cl)c3)CC2)c2ccccc2c1=O,inactive: 21.6%,

Structure (SMILES),"activity change, negative = cytotoxicity",Potency
N=C(N)SCc1ccc(Cl)c2ccccc12,,active: 23.1 µM
FC(F)(F)c1ccccc1Cc1c(-c2ccc(Cl)cc2)nc2ccc(Cl)cn12,,"inconclusive: 29.1 µM [cytotoxic, single point]"
O=C(Nc1cccc([N+](=O)[O-])c1)c1cnccn1,,"inconclusive: 9.2 µM [rising, partial curve]"
COc1cc(Cl)c(S(=O)(=O)NCCc2c(C)[nH]c3c(C)cccc23)cc1Cl,,"inconclusive: 20.6 µM [cytotoxic, single point]"
O=C(CC1Sc2ccccc2NC1=O)OC(C(=O)NCCc1ccccc1)c1cccnc1 (centres undefined),,"inconclusive: 18.4 µM [cytotoxic, single point]"
COc1cccc(C(=O)NCC(c2cccs2)N2CCc3ccccc32)c1 (centres undefined),,"inconclusive: 5.17 µM [cytotoxic, full curve]"
COc1cc(C2C(C#N)=C(N)Oc3c2ccc2ccccc32)ccc1OCC(=O)Nc1ccccc1C (centres undefined),,"inconclusive: 23.1 µM [cytotoxic, single point]"
COc1ccc(N2CCN(Cc3nc(N)nc(Nc4ccc(C)c(Cl)c4)n3)CC2)cc1,,active: 5.17 µM
COc1cc(NC(=O)c2ccc(F)cc2)ccc1NC(=O)c1cc2ccccc2o1,inactive: -0.285%,
COc1ccc([C@@H](OC)[C@@]2(Cc3ccc(O)cc3)N=C(N)N(C)C2=O)cc1,inactive: 55.1%,
CCN(CC)C(=O)C1=C(C)N(Cc2ccc(OC)cc2)C(=O)C(CC(=O)NC(c2ccccc2)c2ccccc2)C1 (centres undefined),,"inconclusive: 29.1 µM [cytotoxic, single point]"
O=C(COc1ccc(F)cc1)N(c1ccccn1)C1CCCCC1,,active: 20.6 µM
Cc1cc(C)c(NC(=O)c2cc(S(=O)(=O)N3CCC4(CC3)OCCO4)ccc2F)c(C)c1,inactive: -1.82%,
CCOc1ccc(-c2cc(CCCC(=O)Nc3cc(OC)ccc3OC)no2)cc1,,"inconclusive: 2.06 µM [cytotoxic, full curve, poor fit]"
C=CCSc1nnc2c(n1)[nH]c1c(C)cccc12,,"inconclusive: 20.6 µM [cytotoxic, single point]"
Cc1[nH]nc2c1C(c1ccc(-c3ccc(Cl)cc3)o1)C(C#N)=C(N)O2 (centres undefined),,"inconclusive: 23.1 µM [cytotoxic, single point]"
O=C(NC(c1ccc(-c2ccccc2)cc1)c1cnccn1)C1CCN(Cc2cccc(C(F)(F)F)c2)CC1 (centres undefined),,"inconclusive: 29.1 µM [cytotoxic, single point]"
O=C(Cc1ccc([N+](=O)[O-])cc1)Nc1ccc(Br)cn1,,"inconclusive: 25.9 µM [cytotoxic, partial curve, poor fit]"
CS(=O)(=O)N(CC(=O)NCc1ccncc1)Cc1ccc(Cl)cc1,,"inconclusive: 29.1 µM [rising, single point]"
COc1ccc(CNC(=O)CC2(CC(=O)O)CCCCC2)cc1,inactive: 0%,
Nc1nnc(SCCCC(=O)c2ccc(Br)cc2)s1,,"inconclusive: 29.1 µM [cytotoxic, single point]"
CCC(=O)N1CCC1(C)C(=O)Nc1ccc(Cl)c(Cl)c1 (centres undefined),inactive: -1.75%,

# A different layout for 14 compounds above:
Structure (SMILES)	activity change, negative = cytotoxicity	Potency
COc1cccc(C(=O)NCC(c2cccs2)N2CCc3ccccc32)c1 (centres undefined)		inconclusive: 5.17 µM [cytotoxic, full curve]
COc1cc(C2C(C#N)=C(N)Oc3c2ccc2ccccc32)ccc1OCC(=O)Nc1ccccc1C (centres undefined)		inconclusive: 23.1 µM [cytotoxic, single point]
COc1ccc(N2CCN(Cc3nc(N)nc(Nc4ccc(C)c(Cl)c4)n3)CC2)cc1		active: 5.17 µM
COc1cc(NC(=O)c2ccc(F)cc2)ccc1NC(=O)c1cc2ccccc2o1	inactive: -0.285%	
COc1ccc([C@@H](OC)[C@@]2(Cc3ccc(O)cc3)N=C(N)N(C)C2=O)cc1	inactive: 55.1%	
CCN(CC)C(=O)C1=C(C)N(Cc2ccc(OC)cc2)C(=O)C(CC(=O)NC(c2ccccc2)c2ccccc2)C1 (centres undefined)		inconclusive: 29.1 µM [cytotoxic, single point]
O=C(COc1ccc(F)cc1)N(c1ccccn1)C1CCCCC1		active: 20.6 µM
Cc1cc(C)c(NC(=O)c2cc(S(=O)(=O)N3CCC4(CC3)OCCO4)ccc2F)c(C)c1	inactive: -1.82%	
CCOc1ccc(-c2cc(CCCC(=O)Nc3cc(OC)ccc3OC)no2)cc1		inconclusive: 2.06 µM [cytotoxic, full curve, poor fit]
C=CCSc1nnc2c(n1)[nH]c1c(C)cccc12		inconclusive: 20.6 µM [cytotoxic, single point]
Cc1[nH]nc2c1C(c1ccc(-c3ccc(Cl)cc3)o1)C(C#N)=C(N)O2 (centres undefined)		inconclusive: 23.1 µM [cytotoxic, single point]
O=C(NC(c1ccc(-c2ccccc2)cc1)c1cnccn1)C1CCN(Cc2cccc(C(F)(F)F)c2)CC1 (centres undefined)		inconclusive: 29.1 µM [cytotoxic, single point]
O=C(Cc1ccc([N+](=O)[O-])cc1)Nc1ccc(Br)cn1		inconclusive: 25.9 µM [cytotoxic, partial curve, poor fit]
CS(=O)(=O)N(CC(=O)NCc1ccncc1)Cc1ccc(Cl)cc1		inconclusive: 29.1 µM [rising, single point]
